The exact form of at least one protein or probe is not confirmed. Negatives hold for the conditions tested.
Test system: E. coli RNA polymerase (his-tagged), sigma70 used for initiation (Escherichia coli)
Test: pull-down (Ni-NTA, transcript retention after wash)
Conditions: 10 mM Mg2+, 700 mM KCl wash, Transcription: 20 mM Tris-HCl pH 8.0, 20 mM MgCl2, 20 mM NaCl, 0.1 mM EDTA, 37 °C, Ni-NTA wash: 40 mM Tris pH 8.0, 10 mM MgCl2, 700 mM KCl, recombinant protein, letters put together from the description

Sequence | binding result (NPOM-stalled elongation complex, NPOM-caged dT at position 8 of strand 2 (opposite A90 of transcript numbering), label: nascent RNA 32P-labelled) | binding result (run-off control without roadblock, label: 32P)
GGGCACCCCAGGCTTTACACTTTATGCTTCCGGCTCGTATAATGTGTGGGTTCAAACCTCAACGGGGTGCCACGCGTACGCGTGCGCTGAGAAAATACCCGTCGAACCTGATCCGGATAACGCCGGCGAAGGGATTTGAGGCTCCT (double strand) | binds | 
GUUCAAACCUCAACGGGGUGCCACGCGUACGCGUGCGCUGAGAAAAUACCCGUCGAACCUGAUCCGGAUAACGCCGGCGAAGGGAUUUGAGGCUCCU [tbpA +5 run-off transcript (no roadblock)] |  | no binding

From article PMC9098449
